For some assays here: A negative result means that nothing was seen under these conditions. Protein sequences can lack the tags named with them. For some assays here: Where cells or extracts were used, other partners may take part. For some assays here: The exact form of at least one protein or probe is not confirmed. For some assays here: Weaker means in comparison with the reference protein, sequence or condition of that experiment. For some assays here: At least one verdict was read from the data and is not stated in words by the source.
What was measured:
[1] = target: T1, Msn2-13Myc (Saccharomyces cerevisiae (YPH45-derived)) (UniProt P33748); assay: pull-down; conditions: pull-down: 400 pmol biotin oligo folded in 100 mM KCl or LiCl, streptavidin beads, yeast whole cell lysate, protein in an extract, residues 1-704, protein details: C-terminal 8xGly-13Myc
T1 sequence (looked up): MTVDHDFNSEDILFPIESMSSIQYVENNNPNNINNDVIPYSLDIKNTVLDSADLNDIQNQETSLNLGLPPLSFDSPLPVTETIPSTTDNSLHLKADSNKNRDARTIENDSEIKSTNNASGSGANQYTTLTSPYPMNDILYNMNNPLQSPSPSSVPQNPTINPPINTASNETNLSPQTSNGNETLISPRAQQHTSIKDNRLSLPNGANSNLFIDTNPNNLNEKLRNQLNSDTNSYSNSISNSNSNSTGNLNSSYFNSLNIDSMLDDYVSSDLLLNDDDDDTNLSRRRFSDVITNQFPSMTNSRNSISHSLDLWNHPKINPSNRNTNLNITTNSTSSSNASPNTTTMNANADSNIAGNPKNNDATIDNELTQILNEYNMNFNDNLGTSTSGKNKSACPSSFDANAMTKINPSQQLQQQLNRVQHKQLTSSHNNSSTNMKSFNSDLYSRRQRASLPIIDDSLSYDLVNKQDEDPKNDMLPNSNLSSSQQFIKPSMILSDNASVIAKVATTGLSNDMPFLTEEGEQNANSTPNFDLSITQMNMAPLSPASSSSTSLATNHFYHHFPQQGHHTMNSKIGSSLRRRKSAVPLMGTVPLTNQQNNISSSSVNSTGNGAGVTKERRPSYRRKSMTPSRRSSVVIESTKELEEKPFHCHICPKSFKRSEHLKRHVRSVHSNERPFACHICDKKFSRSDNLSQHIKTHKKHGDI

[2] = target: T2, Sub1-3xFlag (Saccharomyces cerevisiae (YPH45-derived)) (UniProt P54000); assay: pull-down; conditions: pull-down: 400 pmol biotin oligo folded in 100 mM KCl or LiCl, streptavidin beads, yeast whole cell lysate, protein in an extract, protein details: 3xFlag, label: 3' biotin-TEG on C-run strand
T2 sequence (looked up, limits assumed): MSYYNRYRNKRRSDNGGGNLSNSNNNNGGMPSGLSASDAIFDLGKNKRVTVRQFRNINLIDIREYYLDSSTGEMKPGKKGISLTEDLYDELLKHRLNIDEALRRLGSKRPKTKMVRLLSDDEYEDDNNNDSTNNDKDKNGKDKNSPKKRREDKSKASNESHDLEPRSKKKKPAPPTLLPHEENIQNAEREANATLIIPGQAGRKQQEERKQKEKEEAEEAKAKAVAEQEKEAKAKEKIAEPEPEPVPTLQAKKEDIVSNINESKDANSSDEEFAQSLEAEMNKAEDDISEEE

[3] = target: T3, GST-Msn2(596-704) zinc-finger domain (Saccharomyces cerevisiae) (UniProt P33748); assay: EMSA; conditions: folded in 100 mM Li+; EMSA: oligos (0.1 uM) folded in 10 mM Tris-HCl pH 7.5, 100 mM KCl or LiCl; binding in 10 mM Tris-HCl pH 8.0, 1 mM DTT, 0.01% NP-40, 5% glycerol, 50 uM ZnSO4; recombinant protein; residues 596-704; protein details: N-terminal GST (pGEX4T1); label: 5' Cy5; folded or branched DNA
T3 sequence (looked up): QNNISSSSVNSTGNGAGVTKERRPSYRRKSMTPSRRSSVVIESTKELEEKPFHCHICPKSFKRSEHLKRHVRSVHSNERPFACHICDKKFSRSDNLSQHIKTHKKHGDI

[4] = label: 3' biotin-TEG, folded or branched DNA
[5] = label: 3' biotin-TEG, single-stranded DNA

Row | Sequence | binding result [1, 4] | other results
1 | AAAGGGGGCACAATGGGTGAGTTGTCGGGTAAGGGAAT [ATG20pG4] | binds | –
2 | ACCGGGGGCACACCGGGGTAGGGGGTCCGGAGGGTTA [ATG39pG4 (pull-down)] | binds | –
3 | CCCCTCCCTCGCGCCCGCCC [c-KIT2C-run] | – | binding result [1, 5]: no binding
4 | CTGATAGATGTCACCCCGCTGGGCAGGTCAGGGCAGGGGCTCTCAGGGGGGCGCCATGGACAAACTGCACT (double strand) [dsTPS1pG4 (long)] | – | binding result ([1]; folded in 100 mM K+, binding increases with K+, label: 3' biotin-TEG on C-run strand): binds; binding result ([1]; folded in 100 mM Li+, label: 3' biotin-TEG on C-run strand): binds more weakly; binding result ([2]; folded in 100 mM K+): binds; binding result ([2]; folded in 100 mM Li+): binds more weakly
5 | GAAGGGAGATAGGAAGGGGCGGGGGTCCGGGCAG [TSL1pG4] | binds | –
6 | GAGCGAGCGCGAGAGAGGGG [c-KIT2G4Mut] | – | binding result [1, 5]: no binding
7 | GCGCCCCCCTGAGAGCCCCTGCCCTGACCTGCCCAGC [ssTPS1pC-run] | – | binding result [1, 5]: no binding
8 | GCTGAGCAGATCAGAGCAGGGGCTCTCAGGGGAACGC [ssTPS1pG4Mut] | – | binding result [1, 5]: no binding
9 | GCTGGGCAGGTCAGGGCAGGGGCTCTCAGGGGGGCGC [ssTPS1pG4] | – | binding result ([1]; folded in 100 mM K+, label: 3' biotin-TEG, folded or branched DNA): binds; binding result ([1]; folded in 100 mM Li+, label: 3' biotin-TEG, folded or branched DNA): binds more weakly
10 | GCTGGGCAGGTCAGGGCCGGGGCTCTCCGGGGGGCGC [TPS1pG4-STREMut (AGGGG to CGGGG; name line missing)] | binds | –
11 | GCTGGGCAGGTCAGGGCGGGGGCTCTCGGGGGGGCGC [TPS1pG4-STREMut (AGGGG to GGGGG; name line missing)] | binds | –
12 | GCTGGGCAGGTCAGGGCTGGGGCTCTCTGGGGGGCGC [TPS1pG4-STREMut1] | binds | –
13 | GGGACCGGGCCGAGCCGGGGGAAGGG [rPEX5G4-1801] | binds | –
14 | GGGCGGGCGCGAGGGAGGGA [c-KIT2STREMut] | binds | –
15 | GGGCGGGCGCGAGGGAGGGG [c-KIT2G4] | binds | –
16 | GGGGAGATGGGCGGTGGGGAGCGCGGG [rPEX5G4-1773] | binds | –
17 | GGGGCGCGGGGCGCGGGGCACGGGG [rPEX5G4-833] | binds | –
18 | GGGGCGGGGTCGGGGCTGGGG [rPEX5G4-801] | binds | –
19 | TGGGTGTTGTTGGGGGAGGGAAATGGGT [Cy5-BRCA1-G3] | – | binding result [3]: no binding
